# In PubChem BioAssay AID256 (DTP/NCI, 2004):
# The list does not hold the whole screen: it gathers tests that were run many times, whatever their T/C, doses with no T/C, and many T/C values between a quarter and a half above the control. Other doses and runs of a compound stand elsewhere. T/C is the treated group as % of the vehicle group. Some doses have a count of surviving animals in place of a T/C: the source files T/C as zero there, which appears to mark a toxic dose or a test without result, not a measured value. Some survivor counts are full or nearly so, which does not show that the dose was tolerated: the source hardly ever lists a survival T/C far under the control, and the zero likely stands for such cases as well. Counts of survivors are from the toxicity check (mostly the fifth day) where no day follows; animals may have died later. Schedule codes are those of the source, taken here to give the interval after Q, in days (D) or hours (H), and the number of doses after X. Marks such as (2×) say how often a value occurs here. For survival time, the PubChem record calls one and a half times the control and up active, and a quarter to a half above the control has no call in these data; cut-offs in other NCI protocols can differ.
# Tested on: CD2F1 mice, L1210 leukemia ip, survival T/C
# Assay: NCI In Vivo Anticancer Drug Screen. Data for tumor model L1210 Leukemia (intraperitoneal) in CD2F1 (CDF1) mice
# Details: higher T/C = longer survival
# Procedure, shortened: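 Tumor-bearing mice (transplanted tumor) were split into treated and vehicle control groups, and the measured endpoint of each treated group was divided by that of its vehicle controls.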
# [1] = T/C endpoint: mean survival time, dose: 100.0 mg/kg/injection, schedule: Q01DX001 (ip), vehicle: saline with Tween-80
# [2] = T/C endpoint: mean survival time, dose: 200.0 mg/kg/injection, schedule: Q01DX001 (ip), vehicle: saline with Tween-80
# [3] = T/C endpoint: mean survival time, dose: 400.0 mg/kg/injection, schedule: Q01DX001 (ip), vehicle: saline with Tween-80
# [4] = T/C endpoint: mean survival time, dose: 200.0 mg/kg/injection, schedule: Q04DX003 (ip), vehicle: Klucel (hydroxypropylcellulose) (HPC)
# [5] = T/C endpoint: mean survival time, dose: 400.0 mg/kg/injection, schedule: Q04DX003 (ip), vehicle: Klucel (hydroxypropylcellulose) (HPC)
# [6] = T/C endpoint: mean survival time, dose: 100.0 mg/kg/injection, schedule: Q04DX002 (ip), vehicle: saline with Tween-80
# [7] = T/C endpoint: mean survival time, dose: 400.0 mg/kg/injection, schedule: Q01DX009 (ip), vehicle: saline
# [8] = T/C endpoint: mean survival time, dose: 400.0 mg/kg/injection, schedule: Q04DX003 (ip), vehicle: saline with Tween-80
# [9] = T/C endpoint: mean survival time, dose: 200.0 mg/kg/injection, schedule: Q01DX009 (ip), vehicle: other
# [10] = T/C endpoint: mean survival time, dose: 200.0 mg/kg/injection, schedule: Q04DX003 (ip), vehicle: saline with Tween-80
# [11] = T/C endpoint: mean survival time, dose: 400.0 mg/kg/injection, schedule: Q01DX009 (ip), vehicle: other
# [12] = T/C endpoint: mean survival time, dose: 400.0 mg/kg/injection, schedule: Q01DX009 (ip), vehicle: saline with Tween-80
# [13] = T/C endpoint: mean survival time, dose: 100.0 mg/kg/injection, schedule: Q04DX003 (ip), vehicle: saline with Tween-80
structure (smiles),measurement,setting,value
CCOC(=O)c1cc([N+](=O)[O-])cc([N+](=O)[O-])c1Sc1ncnc2nc[nH]c12,T/C,"T/C endpoint: mean survival time, dose: 12.5 mg/kg/injection, schedule: Q01DX005 (ip), vehicle: other",126 % of control
same,T/C,"T/C endpoint: mean survival time, dose: 25.0 mg/kg/injection, schedule: Q01DX005 (ip), vehicle: other",143 % of control
same,T/C,"T/C endpoint: mean survival time, dose: 37.5 mg/kg/injection, schedule: Q01DX005 (ip), vehicle: other",126 % of control
same,T/C,"T/C endpoint: mean survival time, dose: 50.0 mg/kg/injection, schedule: Q01DX005 (ip), vehicle: other",145 % of control
same,survivor count,"T/C endpoint: mean survival time, dose: 75.0 mg/kg/injection, schedule: Q01DX005 (ip), vehicle: other",0 of 3
O=C1CC(=O)C(Br)=C1Br,survivor count,"T/C endpoint: mean survival time, dose: 12.5 mg/kg/injection, schedule: Q04DX003 (ip), vehicle: saline with Tween-80",3 of 6
same,survivor count,"T/C endpoint: mean survival time, dose: 25.0 mg/kg/injection, schedule: Q04DX003 (ip), vehicle: saline with Tween-80",1 of 6
same,survivor count,"T/C endpoint: mean survival time, dose: 50.0 mg/kg/injection, schedule: Q04DX003 (ip), vehicle: saline with Tween-80",0 of 6
[Cl][Pt+2][Cl].[NH-]CC1([NH-])CCCCC1,T/C,"T/C endpoint: mean survival time, dose: 3.12 mg/kg/injection, schedule: Q04DX003 (ip), vehicle: saline with Tween-80",127 % of control
same,T/C,"T/C endpoint: mean survival time, dose: 6.25 mg/kg/injection, schedule: Q04DX003 (ip), vehicle: saline with Tween-80",127 % of control
same,survivor count,"T/C endpoint: mean survival time, dose: 12.5 mg/kg/injection, schedule: Q04DX003 (ip), vehicle: saline",6 of 6
same,survivor count,"T/C endpoint: mean survival time, dose: 25.0 mg/kg/injection, schedule: Q04DX003 (ip), vehicle: saline",0 of 6
same,survivor count,"T/C endpoint: mean survival time, dose: 50.0 mg/kg/injection, schedule: Q04DX003 (ip), vehicle: saline",2 of 6
same,survivor count,"T/C endpoint: mean survival time, dose: 100.0 mg/kg/injection, schedule: Q04DX003 (ip), vehicle: saline",0 of 6
same,survivor count,"T/C endpoint: mean survival time, dose: 200.0 mg/kg/injection, schedule: Q04DX003 (ip), vehicle: saline",0 of 6
CCC(C(=O)O)c1ccccc1 (configuration not stated),survivor count,"T/C endpoint: mean survival time, dose: 400.0 mg/kg/injection, schedule: Q04DX003 (ip), vehicle: saline sonified",3 of 6
Cc1sc(C)c(CCl)c1CCl,survivor count,[1],3 of 6
same,survivor count,[2],3 of 6
same,survivor count,[3],0 of 6
Nc1nc2ncc(CSc3ccc(C(=O)NC(CCC(=O)O)C(=O)O)cc3)nc2c(=O)[nH]1 (configuration not stated),T/C,"T/C endpoint: mean survival time, dose: 8.0 mg/kg/injection, schedule: Q01DX009 (ip), vehicle: sodium bicarbonate",127 % of control
Clc1ccc(NC2=NCCO2)cc1,survivor count,[4],6 of 6
same,survivor count,[5],2 of 6
O=P(O)(O)OCC(O)CO.[NH-]C1CCCCC1[NH-].[Pt+2] (configuration not stated),T/C,"T/C endpoint: mean survival time, dose: 2.35 mg/kg/injection, schedule: Q04DX003 (ip), vehicle: other",127 % of control
same,T/C,"T/C endpoint: mean survival time, dose: 4.69 mg/kg/injection, schedule: Q04DX003 (ip), vehicle: other",143 % of control
CC1(C)CCC2(C(=O)O)CCC3(C)C(=CCC4C5(C)CC(O)C(OC6OC(CO)C(O)C(O)C6O)C(C)(CO)C5C(O)CC43C)C2C1 (configuration not stated),survivor count,[6],1 of 3
same,survivor count,"T/C endpoint: mean survival time, dose: 200.0 mg/kg/injection, schedule: Q04DX002 (ip), vehicle: saline with Tween-80",0 of 3
NNc1ncnc2c(C3OC(CO)C(O)C3O)[nH]nc12 (configuration not stated),T/C,"T/C endpoint: mean survival time, dose: 45.0 mg/kg/injection, schedule: Q01DX009 (ip), vehicle: saline sonified",125 % of control
same,T/C,"T/C endpoint: mean survival time, dose: 67.0 mg/kg/injection, schedule: Q01DX009 (ip), vehicle: saline sonified",127 % of control
same,T/C,"T/C endpoint: mean survival time, dose: 100.0 mg/kg/injection, schedule: Q01DX009 (ip), vehicle: saline sonified",131 % of control
CCOC(=O)/C(N=Nc1ccc(O)cc1)=C(\C)O,survivor count,"T/C endpoint: mean survival time, dose: 400.0 mg/kg/injection, schedule: Q04DX003 (ip), vehicle: acetone",5 of 6
NC(=O)C1=CC2C3C=CC2(O)C(=O)OC3O1 (configuration not stated),T/C,"T/C endpoint: median survival time, dose: 3.75 mg/kg/injection, schedule: Q01DX009 (ip), vehicle: Klucel (hydroxypropylcellulose) (HPC)",125 % of control
same,T/C,"T/C endpoint: median survival time, dose: 15.0 mg/kg/injection, schedule: Q01DX009 (ip), vehicle: Klucel (hydroxypropylcellulose) (HPC)",142 % of control
same,survivor count,"T/C endpoint: median survival time, dose: 60.0 mg/kg/injection, schedule: Q01DX009 (ip), vehicle: Klucel (hydroxypropylcellulose) (HPC)",0 of 6
CN(C)CCCNCCCCNCCCN(C)C,survivor count,[7],5 of 6
O=[N+]([O-])c1cc(CCl)ccc1CCl,survivor count,"T/C endpoint: mean survival time, dose: 300.0 mg/kg/injection, schedule: Q01DX001 (ip), vehicle: other",3 of 6
CC(C)NC(=O)CCCCN(C(=O)OCc1ccccc1)N(C)C(=O)OCc1ccccc1,survivor count,"T/C endpoint: mean survival time, dose: 25.0 mg/kg/injection, schedule: Q04DX003 (ip), vehicle: Klucel (hydroxypropylcellulose) (HPC)",1 of 6
O=C(O)c1cnc(Cl)nc1Nc1ccccc1I,survivor count,[1],6 of 6
same,survivor count,[3],1 of 6
[Cl][Pt+2]([Cl])([Cl])[Cl].[NH-]Cc1ccccc1C[NH-],survivor count,"T/C endpoint: mean survival time, dose: 80.0 mg/kg/injection, schedule: Q04DX003 (ip), vehicle: saline with Tween-80",4 of 6
Nc1ncc(C(=O)c2ccccc2)cc1[N+](=O)[O-],survivor count,[8],5 of 6
CC(C)(C)c1ccc(OCCO)cc1,survivor count,[9],3 of 6
same,survivor count,[10],6 of 6
same,survivor count,[11],0 of 6
same,survivor count,[8],1 of 6
CC1=CCC(C(C)(C)c2ccc(O)cc2)CC1 (configuration not stated),survivor count,[12],3 of 6
Nc1nc(N)nc(N)n1,survivor count,"T/C endpoint: mean survival time, dose: 1600.0 mg/kg/injection, schedule: Q01DX009 (ip), vehicle: saline with Tween-80",6 of 10
CCCCC(c1ccccc1)P(=O)(OCC)OCC (configuration not stated),survivor count,"T/C endpoint: mean survival time, dose: 200.0 mg/kg/injection, schedule: Q01DX009 (ip), vehicle: saline with Tween-80",3 of 6
same,survivor count,[12],0 of 6
N#CC(Nc1ccccc1)C1CC1c1ccccc1 (configuration not stated),survivor count,[13],6 of 6
same,survivor count,[10],6 of 6
same,survivor count,[8],2 of 6
[O-][n+]1onc2ccc(Cl)cc21,survivor count,[4],2 of 6
same,survivor count,[5],0 of 6
CCN(CC)Cc1ccc([NH-])c([NH-])c1.CCN(CC)Cc1ccc([NH-])c([NH-])c1.[Cl][Pt+2][Cl].[Cl][Pt+2][Cl].[Cl][Pt+2][Cl],survivor count,"T/C endpoint: mean survival time, dose: 100.0 mg/kg/injection, schedule: Q04DX003 (ip), vehicle: water",0 of 6
same,survivor count,"T/C endpoint: mean survival time, dose: 200.0 mg/kg/injection, schedule: Q04DX003 (ip), vehicle: water",0 of 6
CCOC(=O)CN(N=O)C(c1ccccc1)(c1ccccc1)c1ccccc1,survivor count,[1],6 of 6
same,survivor count,[2],6 of 6
same,survivor count,[3],6 of 6
c1ccc(CN2CCOC2)cc1,survivor count,[7],0 of 6 (2×)
COC1=CC(C)(C)C2=C(CN(C)CC2)C1(C)C,survivor count,"T/C endpoint: mean survival time, dose: 75.0 mg/kg/injection, schedule: Q01DX001 (ip), vehicle: saline",3 of 6
same,survivor count,"T/C endpoint: mean survival time, dose: 150.0 mg/kg/injection, schedule: Q01DX001 (ip), vehicle: saline",0 of 6
same,survivor count,"T/C endpoint: mean survival time, dose: 300.0 mg/kg/injection, schedule: Q01DX001 (ip), vehicle: saline",0 of 6
Cn1c(Cl)nc2c(Cl)nc(Cl)nc21,survivor count,[4],0 of 6
same,survivor count,[5],0 of 6
COc1cc2c(cc1OC)NC(=O)CC(=O)N2,survivor count,[13],6 of 6
CCCCCCCCCCCCCC[N+](C)(C)CC#CC[N+](C)(C)CCCCCCCCCCCCCC,survivor count,[6],0 of 3
O=C(O)c1ccc(CBr)c(CBr)c1,survivor count,[13],0 of 6
same,survivor count,[10],0 of 6
same,survivor count,[8],0 of 6
O=C(CBr)c1cc2ncccc2c2ccccc12,survivor count,[9],0 of 6
same,survivor count,[11],0 of 6
Cc1c(CNc2ccc(C(=O)NC(CC(=O)O)CC(=O)O)cc2)ccc2nc(N)nc(N)c12,T/C,"T/C endpoint: mean survival time, dose: 0.13 mg/kg/injection, schedule: Q01DX009 (ip), vehicle: saline",136 % of control
